# The other results are listed elsewhere or left out.
# B1: Awp1 (Candida glabrata) (protein)
# chain: MSLITIFAFLIKATLVLSLDILTPTTLTGDQTFNEDVSVVSSLTLNDGSQYLFNNLLQIAPSSASVTANALAAVSVFTFSLPPSSSLSNSGTLIISNSNTGPSTEQHIVITPNVMANTGTITLSLAHTNTDSSSTLIIDPVTFYNTGTINYESIGSETNDPSLTGNILSIGSSGRTLQNLGTINLNAANSYYLLGTITENSGSINVQKGFLYVNALDFIGNTINLSTTTALAFISPVSQVVRVRGVFFGNIIASVGSSGTFSYNTQTGILTVTTNGVYSYDIGCGYNPALMSGQQETLSFQGNPYDTFLVLVNQPIPSDLTCAAVSSSITPSSSVEPSSSVVPSSSVEPSSSVEPSSSVEPSSSVEPSSSVEPSSSVEPSSSVEPSSSVEPSSSVEPSSSVEPSSSVEPSSSVEPSSSVEPSSSVEPSSSVEPSSSVEPSSSVEPSSSVEPSSSVEPSSLIVPSSSVEPSSSVLPSSSVVPSSSVEPSTPPIPSSSVEPSSSVVPSSPAVPSSSVEPSTPPIPSSSVVSASVFDTSSTLPSSPSVPPSSVSPSTISTPSSSAAPSSFCPTCVSSGTPPAPSSSAIVPTSSAGGGNGGDNREPGAAGQPGAAGQPGAAGQPGAAGQPGAAGQPGAAGQPGAAGQPGAAGQPGAAGQPGAAGQPGAGFGVGSEQPTPGAGAGSGSADGNQSGTGSGTGNGQQGSGQAGSGQAGSGQEGSGQAGSGQAGSGQAGSGQAGSGQAGLDNTASGQSEGGQASAMDGDQSGRDGQSNSGSLLQPNAQQGTGSGTGSDIGADQASGESPGQIGDAQPGSGTDQSSGRHSLAAEARTSQSHSLAADARTRSTTRQTSVIAPDTAPGTASGTAPGTAPGTAVVTTFHGCGTVNHKGMINILLALALLVLL
# Legend:
# Test in all cases: glycan array binding signal (z-score within array); higher = stronger binding
# Conditions in all cases: glycan notation: IUPAC condensed, linker removed
# [1] = biological target: Gal(a1-3)Gal(b1-4)GlcNAc(b1-2)Man
# Outline: (§1)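 The binding signal is a Z-score computed within each array. Data were drawn from 3228 arrays in the Consortium for Functional Glycomics database, restricted to those with a known protein sequence. Scores were averaged over arrays of the same protein sequence at different concentrations or buffers, and over linkers, and negative values can be taken as non-binding.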
# [2] = biological target: Gal(a1-3)Gal(b1-4)GlcNAc(b1-2)Man(a1-3)[Gal(a1-3)Gal(b1-4)GlcNAc(b1-2)Man(a1-6)]Man(b1-4)GlcNAc(b1-4)GlcNAc
# Outline: as §1
# [3] = biological target: Gal(a1-3)Gal(b1-4)GlcNAc(b1-3)GalNAc
# Outline: as §1
# [4] = biological target: Gal(a1-3)Gal(b1-4)GlcNAc(b1-6)GalNAc
# Outline: as §1
# [5] = biological target: Gal(a1-3)Gal(b1-4)[Fuc(a1-3)]GlcNAc
# Outline: as §1
# [6] = biological target: Gal(a1-3)Gal(b1-4)[Fuc(a1-3)]GlcNAc(b1-2)Man(a1-3)[Gal(a1-3)Gal(b1-4)[Fuc(a1-3)]GlcNAc(b1-2)Man(a1-6)]Man(b1-4)GlcNAc(b1-4)GlcNAc
# Outline: as §1
# [7] = biological target: Gal(a1-3)GalNAc
# Outline: as §1
# [8] = biological target: Gal(a1-3)[Gal(a1-4)]Gal(b1-4)GlcNAc
# Outline: as §1
# [9] = biological target: Gal(a1-4)Gal(b1-3)GlcNAc(b1-2)Man(a1-3)[Gal(a1-4)Gal(b1-3)GlcNAc(b1-2)Man(a1-6)]Man(b1-4)GlcNAc(b1-4)GlcNAc
# Outline: as §1
# [10] = biological target: Gal(a1-4)Gal(b1-4)Glc
# Outline: as §1
# [11] = biological target: Gal(a1-4)Gal(b1-4)GlcNAc
# Outline: as §1
# [12] = biological target: Gal(a1-4)Gal(b1-4)GlcNAc(b1-2)Man(a1-3)[Gal(a1-4)Gal(b1-4)GlcNAc(b1-2)Man(a1-6)]Man(b1-4)GlcNAc(b1-4)GlcNAc
# Outline: as §1
# [13] = biological target: Gal(a1-4)Gal(b1-4)GlcNAc(b1-3)Gal(b1-4)Glc
# Outline: as §1
# [14] = biological target: Gal(a1-4)GlcNAc
# Outline: as §1
# [15] = biological target: Gal(a1-6)Glc
# Outline: as §1
# [16] = biological target: Gal(b1-2)Gal
# Outline: as §1
# [17] = biological target: Gal(b1-3)Gal
# Outline: as §1
# [18] = biological target: Gal(b1-3)Gal(b1-4)GlcNAc
# Outline: as §1
# [19] = biological target: Gal(b1-3)GalNAc
# Outline: as §1
# [20] = biological target: Gal(b1-3)GalNAc(a1-3)[Fuc(a1-2)]Gal(b1-4)Glc
# Outline: as §1
# [21] = biological target: Gal(b1-3)GalNAc(a1-3)[Fuc(a1-2)]Gal(b1-4)GlcNAc
# Outline: as §1
# [22] = biological target: Gal(b1-3)GalNAc(b1-3)Gal
# Outline: as §1
# [23] = biological target: Gal(b1-3)GalNAc(b1-3)Gal(a1-4)Gal(b1-4)Glc
# Outline: as §1
# [24] = biological target: Gal(b1-3)GalNAc(b1-4)Gal(b1-4)Glc
# Outline: as §1
# [25] = biological target: Gal(b1-3)GalNAc(b1-4)[Neu5Ac(a2-3)]Gal(b1-4)Glc
# Outline: as §1
# [26] = biological target: Gal(b1-3)GlcNAc
# Outline: as §1
# [27] = biological target: Gal(b1-3)GlcNAc(a1-3)Gal(b1-4)GlcNAc
# Outline: as §1
# [28] = biological target: Gal(b1-3)GlcNAc(a1-6)Gal(b1-4)GlcNAc
# Outline: as §1
# [29] = biological target: Gal(b1-3)GlcNAc(b1-2)Man
# Outline: as §1
# [30] = biological target: Gal(b1-3)GlcNAc(b1-2)Man(a1-3)[Gal(b1-3)GlcNAc(b1-2)Man(a1-6)]Man(b1-4)GlcNAc(b1-4)GlcNAc
# Outline: as §1
binder,measurement,setting,value
B1,glycan array binding signal (z-score),[1],-0.277
same,glycan array binding signal (z-score),[2],0.087
same,glycan array binding signal (z-score),[3],0.368
same,glycan array binding signal (z-score),[4],0.573
same,glycan array binding signal (z-score),[5],0.717
same,glycan array binding signal (z-score),[6],0.15
same,glycan array binding signal (z-score),[7],-0.832
same,glycan array binding signal (z-score),[8],0.211
same,glycan array binding signal (z-score),[9],-0.58
same,glycan array binding signal (z-score),[10],2.6
same,glycan array binding signal (z-score),[11],1.02
same,glycan array binding signal (z-score),[12],1.64
same,glycan array binding signal (z-score),[13],0.176
same,glycan array binding signal (z-score),[14],-2.03
same,glycan array binding signal (z-score),[15],0.381
same,glycan array binding signal (z-score),[16],-1.15
same,glycan array binding signal (z-score),[17],-0.227
same,glycan array binding signal (z-score),[18],0.709
same,glycan array binding signal (z-score),[19],1.08
same,glycan array binding signal (z-score),[20],3.43
same,glycan array binding signal (z-score),[21],-0.352
same,glycan array binding signal (z-score),[22],-0.493
same,glycan array binding signal (z-score),[23],1.18
same,glycan array binding signal (z-score),[24],0.327
same,glycan array binding signal (z-score),[25],-0.686
same,glycan array binding signal (z-score),[26],0.587
same,glycan array binding signal (z-score),[27],0.742
same,glycan array binding signal (z-score),[28],-0.788
same,glycan array binding signal (z-score),[29],-1.17
same,glycan array binding signal (z-score),[30],0.766

# 2 entries from above in a different format.
binder | measurement | setting | value
B1 | glycan array binding signal (z-score) | [21] | -0.352
same | glycan array binding signal (z-score) | [22] | -0.493
